Source: PubChem BioAssay AID504784 (Drosophila RNAi Screening Center, 2011)

Screen: 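Fly genes whose silencing alters how much lipid cells keep in droplets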 (primary screen)
Cell system: Drosophila Kc167 embryonic cells
Reagent: long dsRNA against Drosophila genes, about 250 ng dsRNA per well
Timing: 4 days
Treatment: cells fed 400 µM oleic acid bound to BSA
Measured: 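Cells imaged and segmented; ratio of lipid droplet area to nuclear area, log-transformed, then normalised as a B-score over the screen; higher means more stored lipid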
Direction: droplet/nuclear area B-score: higher = more stored lipid (overstorage)
In all, the deposit lists about 17,000 reagents; shown is a random part of those that have a named target and a result. 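Each column is one replicate's B-score; the combined score over replicates was not deposited, so single values may mislead.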 A plus sign joins genes that one reagent is predicted to hit. Not all columns of the deposit are shown.

| target | DRSC id | droplet/nuclear area B-score, replicate 1 |
| --- | --- | --- |
| Dab | DRSC11140 | -0.0349 |
| CG12782 | DRSC04127 | 2.06 |
| CG32313 | DRSC21450 | -0.00418 |
| kappaTry | DRSC06146 | -1.08 |
| CG6432 | DRSC16039 | 1.3 |
| MESR3 | DRSC02463 | 0.282 |
| Cpr51A | DRSC05969 | -0.101 |
| Treh | DRSC04548 | -0.563 |
| CG32727 | DRSC17519 | 0.119 |
| Cdc50 | DRSC20224 | 0.812 |
| CG12986 | DRSC19506 | 0.611 |
| Datp | DRSC01102 | 0.217 |
| Cyp4g1 | DRSC18459 | 0.177 |
| CG7879 | DRSC08600 | 1.54 |
| mat | DRSC08376 | -0.102 |
| mat | DRSC22841 | -0.266 |
| CG34135 + Nasp | DRSC16397 | 0.0221 |
| CG43339 + CG43338 | DRSC02466 | 0.0162 |
| CG32085 | DRSC10138 | -0.415 |
| CG32085 | DRSC10139 | -0.711 |
| CG32085 | DRSC10576 | -0.0151 |
| Eig71Ek | DRSC11158 | -0.025 |
| Cdc14 | DRSC03013 | -0.00736 |
| CG33230 | DRSC08602 | 0.359 |
| TotA | DRSC13448 | 1.31 |
| CG31213 | DRSC14312 | -3.36 |
| CG31213 | DRSC15647 | 0.408 |
| cort | DRSC02148 | 0.521 |
| Arl2 | DRSC14117 | -0.00141 |
| CG15225 | DRSC04232 | -0.67 |
| CG15225 | DRSC23269 | 0.0224 |
| crb | DRSC16927 | 1.91 |
| CG11262 | DRSC09831 | 0.644 |
| Vsp37A | DRSC18794 | 0.643 |
